What all share (settings): yeast three-hybrid, YBZ-1, SC-Leu-His + 0.5 mM 3-AT, 4 days
Test [1] deals with T1, PUM1 PUF domain R2-VFQ R3-THE R4-TFR N899V + Y900F + C935T + R936H + Q939E + N971T + H972F + Q975R (UniProt Q14671).
T1 sequence: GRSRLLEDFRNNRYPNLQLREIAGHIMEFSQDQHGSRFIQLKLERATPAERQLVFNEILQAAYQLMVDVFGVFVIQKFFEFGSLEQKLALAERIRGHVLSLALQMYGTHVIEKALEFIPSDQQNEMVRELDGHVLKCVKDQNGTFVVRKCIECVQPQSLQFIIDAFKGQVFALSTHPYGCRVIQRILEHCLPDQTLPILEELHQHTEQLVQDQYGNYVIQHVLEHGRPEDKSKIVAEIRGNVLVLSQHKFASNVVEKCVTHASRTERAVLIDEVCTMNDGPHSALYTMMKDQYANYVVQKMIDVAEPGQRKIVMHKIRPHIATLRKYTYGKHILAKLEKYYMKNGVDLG

In test [2] the target is T2, PUM1 PUF domain R5-PHQ R6-SWD C1007P + R1008H + N1043S + Y1044W + Q1047D (UniProt Q14671).
T2 sequence: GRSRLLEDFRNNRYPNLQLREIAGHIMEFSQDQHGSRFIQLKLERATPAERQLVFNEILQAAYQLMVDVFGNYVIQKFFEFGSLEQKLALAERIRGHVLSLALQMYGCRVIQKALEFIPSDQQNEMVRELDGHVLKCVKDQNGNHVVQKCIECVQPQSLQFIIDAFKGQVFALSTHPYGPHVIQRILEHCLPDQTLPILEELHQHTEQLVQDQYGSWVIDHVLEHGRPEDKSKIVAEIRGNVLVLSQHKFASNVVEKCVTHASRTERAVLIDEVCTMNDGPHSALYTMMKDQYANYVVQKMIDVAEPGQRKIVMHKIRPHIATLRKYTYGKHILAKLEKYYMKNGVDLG

In test [3] the target is T3, PUM1 PUF domain R3-THE R4-TFR R7-NPG C935T + R936H + Q939E + N971T + H972F + Q975R + S1079N + N1080P + E1083G (UniProt Q14671).
T3 sequence: T1 sequence with V72N, F73Y, S252N, N253P, E256G

For test [4], the target named is T4, PUM1 PUF domain R3-THE R4-TFR R7-NPG C935T + R936H + Q939E + N971T + H972F + Q975R + S1079N + N1080P + E1083G (Homo sapiens) (UniProt Q14671).
T4 sequence: T1 sequence with V72N, F73Y, S252N, N253P, E256G

Changes are numbered by the printed parent chain. This is one part of the list. For part of these data: At the low end of the ranking, values are background and their order means little. For part of these data: Construct or isoform of the protein are uncertain.

Regarding “GGCUAGAACUAGUGGAUCCCCCGGCGCCCGGCGGCUCGAGCCCGGGUAAGUACAACUCGUCUGCAUGCCGCCGGGCGCCAUGCCUGCAGGUCGACUCUAGAAAACAUG”, the binding signal (log2 enrichment (interaction score)) in test [1] was -3.37; in test [2], -6.63.
Consider “GGCUAGAACUAGUGGAUCCCCCGGCGCCCGGCGGCUCGAGCCCGGGUAAGGCUGGGUAGUCUGCAUGCCGCCGGGCGCCAUGCCUGCAGGUCGACUCUAGAAAACAUG”, for which the binding signal (log2 enrichment (interaction score)) in test [1] was -3.98; in test [3], -2.04.
In the case of “GGCUAGAACUAGUGGAUCCCCCGGCGCCCGGCGGCUCGAGCCCGGGUAAGUGUAAUGCGUCUGCAUGCCGCCGGGCGCCAUGCCUGCAGGUCGACUCUAGAAAACAUG”, the binding signal (log2 enrichment (interaction score)) is -6.01 in test [1] and less than -1.06 in test [4].

The values above are taken from article PMC8384837.
